Assay: Transmittance of polymer film in visible light range
Assay type: physicochemical
Conditions: 0.9 micron film on glass plate, 380-780 nm, based on glass plate coated by acrylic resin only
Experimental: 0.05 g of mixture of Dye 1 and Dye 2 (supplied from Yabang Co., Ltd, 97% purity), 1.6 g of cyclohexanone and 0.7 g of alkaline soluble acrylic resin (MIPHOTO RPR5200, supplied from Miwan Commercial Co., Ltd., 25-35% of solid content in methyl 3-methoxypropionate) were mixed and stirred for 5 minutes at room temperature. Then the solution was spin coated onto a glass plate (thickness: 1 mm, spinning rate: 400 rpm, time: 18 seconds) using KW-4A type spin coater made by Kunshan Lidian JingmiJixie Co., Ltd. The wet film was inserted in an oven and heated at 80° C. for 30 minutes, then at 150° C. for 15 minutes. Film thickness, transmittance and chromaticity coordinates of the obtained film were measured as disclosed below. Film thickness of the film was 0.9 micron, transmittance of the film was 97.7% based on glass plate coated by acrylic resin only. Chromaticity coordinates measured by UltraScan Pro (Hunterlab) colorimeter was, x=0.4093, y=0.2695 and Y=31.6.
The transmission peak of the color film in visible light range (wavelength: 380 nm˜780 nm) on glass sheet subtracted with the transmittance of glass sheet is employed to indicate the transmittance. The visible transmission spectrum is recorded by UltraScan Pro (Hunterlab) colorimeter.
For `CC1=NN(c2ccccc2)C(=O)C1/N=N/c1ccccc1` (stereo not drawn) [Example 2, C.I. solvent yellow 16], the “Transmittance (%)” value was 98.1%.
In the case of `Cc1ccccc1/N=N/c1ccc(/N=N/c2c(O)ccc3ccccc23)c(C)c1` [Example 3, C.I. solvent red 24], the “Transmittance (%)” value was 97.3%.
With `Oc1ccc2ccccc2c1/N=N/c1ccccc1` [Example 4, C.I. solvent yellow 14] the “Transmittance (%)” value was 97.2%.

Reference: US20160053120A1, “AZO DYE USED FOR A COLOR FILTER OF A LCD” (DOW GLOBAL TECHNOLOGIES LLC, priority 2013, published 2016)
